Measurements as given in the supplement of paper PMC10849652.
This is one part of the list.

Amino acid sequences for entries named in this document (tags omitted). A change or cut given only in a name is not applied to a line headed by its entry.
UniProt Q5T2R2: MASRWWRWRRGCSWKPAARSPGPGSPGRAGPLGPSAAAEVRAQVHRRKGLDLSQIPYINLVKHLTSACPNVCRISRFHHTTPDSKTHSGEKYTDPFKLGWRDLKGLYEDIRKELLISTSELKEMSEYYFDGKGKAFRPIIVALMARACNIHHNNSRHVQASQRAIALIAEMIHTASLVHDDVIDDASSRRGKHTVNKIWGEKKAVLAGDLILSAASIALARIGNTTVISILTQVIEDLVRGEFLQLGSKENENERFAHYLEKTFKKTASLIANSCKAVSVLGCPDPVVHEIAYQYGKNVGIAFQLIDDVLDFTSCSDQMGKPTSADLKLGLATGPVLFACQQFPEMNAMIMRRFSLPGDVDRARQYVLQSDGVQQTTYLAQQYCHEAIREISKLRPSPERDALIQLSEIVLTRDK
UniProt P11177, whole entry, looked up: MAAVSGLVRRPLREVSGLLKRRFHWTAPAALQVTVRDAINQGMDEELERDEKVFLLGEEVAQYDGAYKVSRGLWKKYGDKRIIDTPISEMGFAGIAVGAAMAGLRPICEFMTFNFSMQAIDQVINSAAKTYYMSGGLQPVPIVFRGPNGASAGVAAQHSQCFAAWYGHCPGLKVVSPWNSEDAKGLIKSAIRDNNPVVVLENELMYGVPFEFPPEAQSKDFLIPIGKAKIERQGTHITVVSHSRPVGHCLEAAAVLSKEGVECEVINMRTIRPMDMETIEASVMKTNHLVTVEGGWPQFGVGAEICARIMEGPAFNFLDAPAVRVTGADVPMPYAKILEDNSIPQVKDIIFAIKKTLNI
UniProt O60825: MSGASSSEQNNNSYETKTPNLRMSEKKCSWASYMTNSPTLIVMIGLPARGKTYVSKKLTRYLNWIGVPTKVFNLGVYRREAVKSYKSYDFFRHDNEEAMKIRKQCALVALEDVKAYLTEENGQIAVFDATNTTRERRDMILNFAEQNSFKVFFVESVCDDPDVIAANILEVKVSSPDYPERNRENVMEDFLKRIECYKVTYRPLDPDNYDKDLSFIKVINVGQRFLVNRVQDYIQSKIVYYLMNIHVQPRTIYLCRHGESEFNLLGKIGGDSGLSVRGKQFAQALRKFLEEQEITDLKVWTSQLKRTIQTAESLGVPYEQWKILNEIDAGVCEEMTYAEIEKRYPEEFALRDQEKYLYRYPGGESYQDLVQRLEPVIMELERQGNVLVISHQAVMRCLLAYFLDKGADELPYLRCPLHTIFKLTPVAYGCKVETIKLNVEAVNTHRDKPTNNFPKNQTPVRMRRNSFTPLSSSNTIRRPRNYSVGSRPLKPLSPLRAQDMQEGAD
UniProt Q9Y6V0: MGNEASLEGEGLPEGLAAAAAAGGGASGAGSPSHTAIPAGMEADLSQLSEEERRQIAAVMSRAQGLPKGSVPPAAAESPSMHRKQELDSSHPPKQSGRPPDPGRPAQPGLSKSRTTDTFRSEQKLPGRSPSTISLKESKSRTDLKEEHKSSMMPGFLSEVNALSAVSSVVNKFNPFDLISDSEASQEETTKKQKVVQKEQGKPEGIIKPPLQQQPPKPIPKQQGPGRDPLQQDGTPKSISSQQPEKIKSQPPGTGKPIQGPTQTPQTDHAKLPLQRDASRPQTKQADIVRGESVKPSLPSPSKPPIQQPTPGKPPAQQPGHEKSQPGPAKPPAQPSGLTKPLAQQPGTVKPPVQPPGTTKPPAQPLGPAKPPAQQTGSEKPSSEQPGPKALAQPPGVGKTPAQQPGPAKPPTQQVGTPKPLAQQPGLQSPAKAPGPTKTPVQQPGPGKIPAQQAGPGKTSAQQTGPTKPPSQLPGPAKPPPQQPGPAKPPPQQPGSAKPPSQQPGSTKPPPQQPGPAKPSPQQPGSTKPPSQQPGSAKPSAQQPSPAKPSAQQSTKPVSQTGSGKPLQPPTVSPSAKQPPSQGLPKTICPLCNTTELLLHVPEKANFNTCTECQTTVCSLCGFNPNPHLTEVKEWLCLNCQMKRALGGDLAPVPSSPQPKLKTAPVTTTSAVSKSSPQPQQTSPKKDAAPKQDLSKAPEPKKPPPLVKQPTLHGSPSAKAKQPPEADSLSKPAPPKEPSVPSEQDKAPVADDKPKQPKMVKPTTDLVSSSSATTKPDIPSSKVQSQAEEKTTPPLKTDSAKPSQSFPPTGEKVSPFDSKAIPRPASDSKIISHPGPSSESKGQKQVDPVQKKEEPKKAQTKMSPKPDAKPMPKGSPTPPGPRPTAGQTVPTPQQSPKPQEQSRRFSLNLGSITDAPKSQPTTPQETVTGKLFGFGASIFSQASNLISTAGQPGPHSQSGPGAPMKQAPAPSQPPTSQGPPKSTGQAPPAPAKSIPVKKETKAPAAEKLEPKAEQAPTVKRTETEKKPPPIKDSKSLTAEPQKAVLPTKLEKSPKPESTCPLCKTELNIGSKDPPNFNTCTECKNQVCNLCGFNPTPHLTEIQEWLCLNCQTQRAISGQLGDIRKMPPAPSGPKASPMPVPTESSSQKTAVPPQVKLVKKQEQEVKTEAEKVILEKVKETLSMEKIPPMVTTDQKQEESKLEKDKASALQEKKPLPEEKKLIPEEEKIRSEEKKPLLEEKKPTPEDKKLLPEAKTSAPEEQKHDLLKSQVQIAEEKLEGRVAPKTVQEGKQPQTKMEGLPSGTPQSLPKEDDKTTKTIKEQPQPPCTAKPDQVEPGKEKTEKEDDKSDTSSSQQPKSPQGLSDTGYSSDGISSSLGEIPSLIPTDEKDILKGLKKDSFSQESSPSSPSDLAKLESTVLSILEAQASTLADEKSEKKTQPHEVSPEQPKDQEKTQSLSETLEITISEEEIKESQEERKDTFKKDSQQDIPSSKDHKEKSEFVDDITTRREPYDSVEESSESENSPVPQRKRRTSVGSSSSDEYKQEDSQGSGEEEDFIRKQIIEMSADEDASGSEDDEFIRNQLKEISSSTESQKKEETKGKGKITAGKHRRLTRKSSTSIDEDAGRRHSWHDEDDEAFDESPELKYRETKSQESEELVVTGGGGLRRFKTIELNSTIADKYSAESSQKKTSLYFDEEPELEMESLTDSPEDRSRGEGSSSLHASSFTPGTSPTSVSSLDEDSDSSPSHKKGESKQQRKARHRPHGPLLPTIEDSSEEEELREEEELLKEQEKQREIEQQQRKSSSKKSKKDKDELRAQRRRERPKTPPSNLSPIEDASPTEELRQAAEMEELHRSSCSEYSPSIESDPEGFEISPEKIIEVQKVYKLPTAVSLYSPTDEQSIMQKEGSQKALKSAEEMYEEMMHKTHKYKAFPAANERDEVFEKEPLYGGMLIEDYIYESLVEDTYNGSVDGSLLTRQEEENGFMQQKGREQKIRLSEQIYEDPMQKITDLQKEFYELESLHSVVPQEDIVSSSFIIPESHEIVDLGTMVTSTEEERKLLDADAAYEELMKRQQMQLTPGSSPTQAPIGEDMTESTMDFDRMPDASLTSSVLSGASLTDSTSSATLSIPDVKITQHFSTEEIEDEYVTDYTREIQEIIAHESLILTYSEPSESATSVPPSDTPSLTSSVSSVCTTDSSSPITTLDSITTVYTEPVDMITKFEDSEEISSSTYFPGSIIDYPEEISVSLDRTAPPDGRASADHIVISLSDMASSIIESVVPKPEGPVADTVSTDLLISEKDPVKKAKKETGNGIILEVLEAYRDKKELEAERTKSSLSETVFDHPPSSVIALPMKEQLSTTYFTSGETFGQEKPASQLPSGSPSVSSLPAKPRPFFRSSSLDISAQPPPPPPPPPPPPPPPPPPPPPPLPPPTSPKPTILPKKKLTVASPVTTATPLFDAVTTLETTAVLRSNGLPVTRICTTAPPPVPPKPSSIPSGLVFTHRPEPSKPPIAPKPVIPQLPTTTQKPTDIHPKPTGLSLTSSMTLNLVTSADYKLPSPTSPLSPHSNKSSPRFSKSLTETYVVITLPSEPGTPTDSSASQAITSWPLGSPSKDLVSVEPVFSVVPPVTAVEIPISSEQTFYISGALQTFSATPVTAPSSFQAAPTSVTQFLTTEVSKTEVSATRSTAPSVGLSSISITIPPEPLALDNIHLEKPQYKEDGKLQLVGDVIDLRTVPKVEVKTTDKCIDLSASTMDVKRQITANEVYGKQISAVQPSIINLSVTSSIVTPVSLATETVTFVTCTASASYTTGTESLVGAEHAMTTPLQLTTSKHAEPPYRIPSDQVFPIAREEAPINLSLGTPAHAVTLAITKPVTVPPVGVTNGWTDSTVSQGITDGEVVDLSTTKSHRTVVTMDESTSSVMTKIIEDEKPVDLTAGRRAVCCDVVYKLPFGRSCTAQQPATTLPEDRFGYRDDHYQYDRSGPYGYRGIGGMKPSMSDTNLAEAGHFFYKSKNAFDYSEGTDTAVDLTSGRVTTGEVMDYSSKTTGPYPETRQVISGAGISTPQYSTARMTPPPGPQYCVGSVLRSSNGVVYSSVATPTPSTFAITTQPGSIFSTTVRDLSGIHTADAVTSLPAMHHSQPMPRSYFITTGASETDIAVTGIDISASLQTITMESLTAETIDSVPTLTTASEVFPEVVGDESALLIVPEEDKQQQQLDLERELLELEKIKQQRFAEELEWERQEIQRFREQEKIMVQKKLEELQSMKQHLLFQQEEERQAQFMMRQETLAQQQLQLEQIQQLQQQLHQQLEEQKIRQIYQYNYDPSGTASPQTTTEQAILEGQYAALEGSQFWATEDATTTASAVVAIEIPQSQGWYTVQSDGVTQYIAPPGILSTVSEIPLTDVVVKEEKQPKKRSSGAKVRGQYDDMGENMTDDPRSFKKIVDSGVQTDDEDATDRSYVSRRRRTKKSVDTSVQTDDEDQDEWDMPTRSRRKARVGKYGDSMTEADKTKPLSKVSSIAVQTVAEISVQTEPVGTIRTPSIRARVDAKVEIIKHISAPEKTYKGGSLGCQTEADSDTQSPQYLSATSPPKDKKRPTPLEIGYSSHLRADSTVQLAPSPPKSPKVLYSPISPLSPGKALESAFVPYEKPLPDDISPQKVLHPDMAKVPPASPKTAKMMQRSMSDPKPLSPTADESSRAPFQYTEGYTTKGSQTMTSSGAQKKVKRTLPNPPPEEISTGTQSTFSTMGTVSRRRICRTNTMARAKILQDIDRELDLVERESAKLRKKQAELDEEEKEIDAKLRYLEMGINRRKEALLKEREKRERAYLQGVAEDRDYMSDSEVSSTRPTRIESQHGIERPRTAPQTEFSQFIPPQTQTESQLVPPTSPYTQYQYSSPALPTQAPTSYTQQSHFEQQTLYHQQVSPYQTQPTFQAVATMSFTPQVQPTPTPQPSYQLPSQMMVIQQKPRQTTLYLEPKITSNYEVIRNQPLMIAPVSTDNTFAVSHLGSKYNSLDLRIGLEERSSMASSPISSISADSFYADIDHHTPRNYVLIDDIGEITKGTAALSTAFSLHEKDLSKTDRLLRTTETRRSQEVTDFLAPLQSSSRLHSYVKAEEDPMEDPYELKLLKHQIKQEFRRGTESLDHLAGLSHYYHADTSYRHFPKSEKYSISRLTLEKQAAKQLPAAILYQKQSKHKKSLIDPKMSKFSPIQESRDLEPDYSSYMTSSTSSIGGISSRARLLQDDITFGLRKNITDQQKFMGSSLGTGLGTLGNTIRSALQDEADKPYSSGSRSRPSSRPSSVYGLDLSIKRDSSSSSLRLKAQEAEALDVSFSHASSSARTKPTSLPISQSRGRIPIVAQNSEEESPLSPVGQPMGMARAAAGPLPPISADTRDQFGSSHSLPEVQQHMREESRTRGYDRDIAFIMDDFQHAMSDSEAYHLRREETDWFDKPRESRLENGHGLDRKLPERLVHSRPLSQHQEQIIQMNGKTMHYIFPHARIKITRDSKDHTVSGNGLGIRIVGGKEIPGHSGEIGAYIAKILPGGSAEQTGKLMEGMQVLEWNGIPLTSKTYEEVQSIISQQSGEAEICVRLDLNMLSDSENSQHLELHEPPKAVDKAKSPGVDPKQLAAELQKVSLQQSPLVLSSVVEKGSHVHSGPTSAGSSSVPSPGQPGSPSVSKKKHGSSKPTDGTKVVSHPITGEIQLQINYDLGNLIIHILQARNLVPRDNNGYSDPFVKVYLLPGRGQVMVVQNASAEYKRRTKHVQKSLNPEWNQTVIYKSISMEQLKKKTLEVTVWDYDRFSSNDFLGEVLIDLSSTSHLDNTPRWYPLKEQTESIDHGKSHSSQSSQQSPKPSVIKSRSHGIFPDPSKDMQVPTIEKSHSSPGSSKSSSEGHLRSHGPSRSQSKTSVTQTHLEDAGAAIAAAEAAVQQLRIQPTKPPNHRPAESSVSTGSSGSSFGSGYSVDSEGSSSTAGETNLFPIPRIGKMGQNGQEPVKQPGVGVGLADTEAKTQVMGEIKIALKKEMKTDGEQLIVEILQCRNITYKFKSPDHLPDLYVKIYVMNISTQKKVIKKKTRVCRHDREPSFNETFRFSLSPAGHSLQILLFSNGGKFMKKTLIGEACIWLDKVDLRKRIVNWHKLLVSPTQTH
UniProt Q9NQP4, whole entry, looked up: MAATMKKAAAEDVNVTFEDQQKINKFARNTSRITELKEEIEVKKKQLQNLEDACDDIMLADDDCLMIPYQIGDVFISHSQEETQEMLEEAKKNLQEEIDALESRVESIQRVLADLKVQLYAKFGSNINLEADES

How the values were obtained:
Assay in all cases: log2 fold change, soluble protein after heating vs DMSO (PISA); higher = thermal stabilisation; K562 lysate, 10 uM; active = over 0.2 and 3.5 SD of the protein, either way, in both replicates (recomputed)
[1] = compound: CCCS(=O)(=O)Nc1ccc(F)c(C(=O)c2c[nH]c3ncc(-c4ccc(Cl)cc4)cc23)c1F [vemurafenib]
Summary of the method: (§1)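 To prepare the extract, K562 pellets were dounce-homogenised in PBS pH 7.4 with 1 mM MgCl2, giving crude material at 1 mg/mL protein. This was treated with 10 μM compound for 30 min, then heated in aliquots for 3 min over 48°C-58°C before pooling and addition of NP-40 to 0.5% at 4°C. Centrifugation at 21,000xg for 90 min left soluble protein in the supernatant, which TMTpro 16plex LC-MS/MS quantified with equalised channel sums. Results are log-two fold changes in thermal stability compared with solvent controls, from duplicates.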

[2] = compound: CCCS(=O)(=O)Nc1ccc(F)c(C(=O)c2c[nH]c3ncc(Cl)cc23)c1F
Summary of the method: as §1

[3] = compound: CCN(CCCOc1ccc2c(Nc3cc(CC(=O)Nc4cccc(F)c4)[nH]n3)ncnc2c1)CCOP(=O)(O)O [barasertib]
Summary of the method: as §1

[4] = compound: CC[C@@H]1C(=O)N(C)c2cnc(Nc3ccc(C(=O)NC4CCN(C)CC4)cc3OC)nc2N1C1CCCC1
Summary of the method: as §1

[5] = compound: CC[C@@H]1C(=O)N(C)c2cnc(Nc3ccc(C(=O)N[C@H]4CC[C@H](N5CCN(CC6CC6)CC5)CC4)cc3OC)nc2N1C(C)C [volasertib]
Summary of the method: as §1

[6] = compound: CCn1c(C(=O)N(C2CC2)C2CC2)cc2c3c(ncn3C)c(Nc3cc(C)n(C)n3)nc21
Summary of the method: as §1

[7] = compound: CCn1cc(-c2ccnc3[nH]c(-c4cccc(CN(C)C)c4)cc23)c(-c2ccc(NC(=O)N(C)C)cc2)n1
Summary of the method: as §1

[8] = compound: CN1CCC(CNc2ccc3ncc(-c4cccc(OC(F)(F)F)c4)n3n2)CC1
Summary of the method: as §1

[9] = compound: CN1CCN(CCOc2cc(OC3CCOCC3)c3c(Nc4c(Cl)ccc5c4OCO5)ncnc3c2)CC1 [saracatinib]
Summary of the method: as §1

[10] = compound: CN1CCN(c2nc(C3=C(c4c[nH]c5ccccc45)C(=O)NC3=O)c3ccccc3n2)CC1 [sotrastaurin]
Summary of the method: as §1

[11] = compound: CN1CC[C@H](c2c(O)cc(O)c3c(=O)cc(-c4ccccc4Cl)oc23)[C@H](O)C1 [alvocidib]
Summary of the method: as §1

[12] = compound: CN1CCc2c(c3ccccc3n2Cc2ccc(C(=O)NO)cc2)C1 [Tubastatin A]
Summary of the method: as §1

[13] = compound: CNC(=O)C1=CC=CC=C1NC2=NC(=NC=C2Cl)NC3=C(C=C(C=C3)N4CCOCC4)OC
Summary of the method: as §1

[14] = compound: CNC(=O)c1ccc(Nc2ncc(C(F)(F)F)c(NCc3nccnc3N(C)S(C)(=O)=O)n2)cc1 [defactinib]
Summary of the method: as §1

[15] = compound: CNc1nc(-c2ccc3c(N)n[nH]c3c2)cc(N2C[C@@H](C(=O)NC3CCCCC3)CC[C@H]2C)n1
Summary of the method: as §1

[16] = compound: COC(=O)N[C@@H](C)CNc1nccc(-c2cn(C(C)C)nc2-c2cc(Cl)cc(NS(C)(=O)=O)c2F)n1 [encorafenib]
Summary of the method: as §1

[17] = compound: COC(=O)[C@H](CCSC)NC(=O)C1=C(C=C(C=C1)NC[C@H](CS)N)C2=CC=CC=C2
Summary of the method: as §1

[18] = compound: COc1cc(Nc2ncc3c(n2)-c2ccc(Cl)cc2C(c2c(F)cccc2OC)=NC3)ccc1C(=O)O [alisertib]
Summary of the method: as §1

[19] = compound: COc1cc2nc(-c3cc(F)ccc3O)nc(N[C@@H]3CNC[C@H]3C(C)(C)O)c2cc1OC
Summary of the method: as §1

[20] = compound: COc1cc2ncnc(Nc3ccc(F)c(Cl)c3)c2cc1OCCCN1CCOCC1 [gefitinib]
Summary of the method: as §1

| Target | log2 fold change [1] | log2 fold change [2] | log2 fold change [3] | log2 fold change [4] | log2 fold change [5] | log2 fold change [6] | log2 fold change [7] | log2 fold change [8] | log2 fold change [9] | log2 fold change [10] | log2 fold change [11] | log2 fold change [12] | log2 fold change [13] | log2 fold change [14] | log2 fold change [15] | log2 fold change [16] | log2 fold change [17] | log2 fold change [18] | log2 fold change [19] | log2 fold change [20] |
| --- | --- | --- | --- | --- | --- | --- | --- | --- | --- | --- | --- | --- | --- | --- | --- | --- | --- | --- | --- | --- |
| PAXBP1 (UniProt Q9Y5B6) | inactive: 0.072 | inactive: 0.006 | inactive: 0.07 | inactive: -0.008 | inactive: -0.058 | inactive: 0.042 | inactive: 0.043 | inactive: 0.004 | inactive: 0.02 | inactive: 0.025 | inactive: -0.043 | inactive: -0.069 | inactive: 0.015 | inactive: 0.005 | inactive: -0.004 | inactive: 0.018 | active: 0.29 | inactive: 0.013 | inactive: -0.003 | inactive: -0.038 |
| PET100 (UniProt P0DJ07) | inactive: 0 | inactive: 0.046 | inactive: 0.017 | inactive: 0.107 | inactive: -0.035 | inactive: 0.04 | inactive: 0.23 | inactive: -0.221 | inactive: -0.005 | inactive: 0.056 | inactive: 0.058 | inactive: 0.113 | inactive: -0.024 | inactive: -0.044 | inactive: -0.106 | inactive: -0.257 | inactive: -0.042 | inactive: -0.087 | inactive: -0.005 | inactive: 0.019 |
| PDSS1 (UniProt Q5T2R2) | inactive: -0.059 | inactive: -0.077 | inactive: 0.035 | inactive: -0.04 | inactive: 0 | inactive: 0.122 | inactive: 0.117 | inactive: -0.042 | inactive: 0.145 | inactive: 0.088 | inactive: 0.042 | inactive: 0.08 | inactive: 0.013 | inactive: -0.016 | inactive: 0 | inactive: 0.016 | inactive: 0.037 | inactive: 0.018 | inactive: -0.116 | inactive: 0.128 |
| PEA15 isoform 2 (UniProt Q15121) | inactive: -0.011 | inactive: -0.014 | inactive: 0.077 | inactive: 0.016 | inactive: 0.019 | inactive: -0.001 | inactive: -0.065 | inactive: -0.044 | inactive: -0.025 | inactive: -0.026 | inactive: 0.045 | inactive: 0.098 | inactive: 0.025 | inactive: 0.03 | inactive: 0.019 | inactive: -0.011 | inactive: -0.039 | inactive: -0.014 | inactive: -0.025 | inactive: -0.1 |
| PES1 (UniProt O00541) | inactive: 0.009 | inactive: 0.023 | inactive: -0.019 | inactive: -0.074 | inactive: -0.04 | inactive: 0.017 | inactive: -0.043 | inactive: 0.052 | inactive: 0.007 | inactive: 0.028 | inactive: -0.017 | inactive: -0.044 | inactive: 0.05 | inactive: 0.005 | inactive: 0.017 | inactive: 0.006 | active: 0.35 | inactive: 0.028 | inactive: -0.003 | inactive: 0.007 |
| PARP16 isoform 3 (UniProt Q8N5Y8) | inactive: 0.087 | inactive: 0.004 | inactive: 0.026 | inactive: 0.063 | inactive: 0.012 | inactive: -0.113 | inactive: -0.091 | inactive: 0.027 | inactive: 0.021 | inactive: 0.007 | inactive: -0.082 | inactive: 0.081 | inactive: -0.051 | inactive: 0.019 | inactive: 0.031 | inactive: -0.077 | inactive: -0.027 | inactive: 0.01 | inactive: -0.024 | inactive: 0.109 |
| PDE4DIP isoform 4 (UniProt Q5VU43) | inactive: 0.027 | inactive: 0.011 | inactive: 0.092 | inactive: 0.046 | inactive: 0.025 | inactive: 0.04 | inactive: -0.04 | inactive: -0.005 | inactive: 0.034 | inactive: -0.014 | inactive: -0.038 | inactive: 0.004 | inactive: -0.003 | inactive: -0.018 | inactive: 0.036 | inactive: 0.006 | inactive: 0.004 | inactive: 0.023 | inactive: -0.007 | inactive: -0.059 |
| PGGHG (UniProt Q32M88) | inactive: 0.04 | inactive: 0.008 | inactive: 0.008 | inactive: 0.083 | inactive: 0.013 | inactive: 0.034 | inactive: -0.013 | inactive: 0.044 | inactive: -0.019 | inactive: -0.049 | inactive: -0.011 | inactive: 0.033 | inactive: 0.038 | inactive: -0.017 | inactive: 0.017 | inactive: 0.017 | inactive: -0.061 | inactive: -0.023 | inactive: -0.051 | inactive: -0.009 |
| PCCA (UniProt P05165) | inactive: 0.026 | inactive: -0.022 | inactive: 0.048 | inactive: 0.052 | inactive: -0.001 | inactive: 0.007 | inactive: -0.017 | inactive: -0.004 | inactive: 0.051 | inactive: -0.005 | inactive: 0.001 | inactive: 0.062 | inactive: -0.046 | inactive: -0.026 | inactive: -0.042 | inactive: -0.006 | inactive: 0.137 | inactive: 0.003 | inactive: 0.024 | inactive: -0.032 |
| PDHB (UniProt P11177) | inactive: 0.047 | inactive: 0.014 | inactive: -0.025 | inactive: -0.009 | inactive: 0.008 | inactive: 0.015 | inactive: -0.028 | inactive: -0.05 | inactive: -0.009 | inactive: 0.031 | inactive: -0.015 | inactive: -0.038 | inactive: -0.016 | inactive: 0.026 | inactive: -0.008 | inactive: -0.013 | inactive: 0.054 | inactive: 0.014 | inactive: -0.03 | inactive: 0.019 |
| PCBP1 (UniProt Q15365) | inactive: 0.017 | inactive: 0.027 | inactive: -0.017 | inactive: 0.038 | inactive: 0.001 | inactive: -0.027 | inactive: 0.029 | inactive: 0.054 | inactive: 0.012 | inactive: -0.024 | inactive: -0.016 | inactive: 0.046 | inactive: 0.026 | inactive: -0.003 | inactive: 0.046 | inactive: 0.023 | inactive: -0.077 | inactive: 0.009 | inactive: 0.013 | inactive: 0.01 |
| PFDN5 (UniProt Q99471) | inactive: 0.026 | inactive: -0.053 | inactive: 0.07 | inactive: 0.033 | inactive: 0.063 | inactive: 0.062 | inactive: 0.041 | inactive: -0.12 | inactive: 0.002 | inactive: -0.066 | inactive: 0.03 | inactive: 0.109 | inactive: 0.03 | inactive: 0.09 | inactive: 0.061 | inactive: 0 | inactive: -0.028 | inactive: 0.028 | inactive: -0.004 | inactive: -0.185 |
| PDIA6 isoform 2 (UniProt Q15084) | inactive: -0.005 | inactive: -0.028 | inactive: -0.03 | inactive: 0.033 | inactive: 0.005 | inactive: -0.005 | inactive: 0.047 | inactive: -0.028 | inactive: -0.019 | inactive: -0.005 | inactive: 0.019 | inactive: 0.094 | inactive: -0.029 | inactive: -0.005 | inactive: -0.012 | inactive: -0.023 | inactive: -0.055 | inactive: 0.003 | inactive: -0.001 | inactive: 0.021 |
| PFKFB2 (UniProt O60825) | inactive: -0.011 | inactive: 0.011 | inactive: 0.008 | inactive: 0.004 | inactive: -0.025 | inactive: 0.015 | inactive: -0.021 | inactive: -0.029 | inactive: 0.012 | inactive: 0.002 | inactive: 0.017 | inactive: -0.045 | inactive: 0.03 | inactive: -0.02 | inactive: -0.035 | inactive: 0.015 | inactive: -0.124 | inactive: 0.014 | inactive: 0.006 | inactive: 0.014 |
| PCLO (UniProt Q9Y6V0) | inactive: 0.068 | inactive: 0.018 | inactive: 0.03 | inactive: 0.144 | inactive: -0.015 | inactive: -0.03 | inactive: -0.518 | inactive: 0.364 | inactive: -0.045 | inactive: -0.008 | inactive: -0.252 | inactive: 0.104 | inactive: 0.01 | inactive: 0.061 | inactive: 0.335 | inactive: 0.041 | inactive: -0.033 | inactive: -0.036 | inactive: 0.057 | inactive: -0.078 |
| PFDN4 (UniProt Q9NQP4) | inactive: 0.008 | inactive: 0.031 | inactive: -0.013 | inactive: 0.012 | inactive: 0.008 | inactive: -0.018 | inactive: 0.063 | inactive: 0.028 | inactive: -0.22 | inactive: 0.059 | inactive: -0.006 | inactive: 0.199 | inactive: -0.074 | inactive: 0.108 | inactive: 0.007 | inactive: 0.021 | inactive: -0.011 | inactive: -0.081 | inactive: 0 | inactive: 0.045 |

Part of the list above, as tab-separated lines:
Target	log2 fold change [1]	log2 fold change [2]	log2 fold change [3]	log2 fold change [4]	log2 fold change [5]	log2 fold change [6]	log2 fold change [7]	log2 fold change [8]	log2 fold change [9]	log2 fold change [10]	log2 fold change [11]	log2 fold change [12]	log2 fold change [13]	log2 fold change [14]	log2 fold change [15]	log2 fold change [16]	log2 fold change [17]	log2 fold change [18]	log2 fold change [19]	log2 fold change [20]
PDIA6 isoform 2 (UniProt Q15084)	inactive: -0.005	inactive: -0.028	inactive: -0.03	inactive: 0.033	inactive: 0.005	inactive: -0.005	inactive: 0.047	inactive: -0.028	inactive: -0.019	inactive: -0.005	inactive: 0.019	inactive: 0.094	inactive: -0.029	inactive: -0.005	inactive: -0.012	inactive: -0.023	inactive: -0.055	inactive: 0.003	inactive: -0.001	inactive: 0.021
PFDN4 (UniProt Q9NQP4)	inactive: 0.008	inactive: 0.031	inactive: -0.013	inactive: 0.012	inactive: 0.008	inactive: -0.018	inactive: 0.063	inactive: 0.028	inactive: -0.22	inactive: 0.059	inactive: -0.006	inactive: 0.199	inactive: -0.074	inactive: 0.108	inactive: 0.007	inactive: 0.021	inactive: -0.011	inactive: -0.081	inactive: 0	inactive: 0.045
